Patent publication US20220098328A1, “ANTIBODIES TO M(H)DM2/4 AND THEIR USE IN DIAGNOSING AND TREATING CANCER” (NomoCan Pharmaceuticals LLC, priority 2017, published 2022)
No constants are given. Whether binding was seen depends on the method and setting. Some results given as binding are weak or reduced against the parent protein; the word gives no strength.

By UniProt entry, the sequences of proteins in these tests, tags left out. Where a name states a change or a piece, a line headed by the entry shows the natural chain unless it says otherwise.
UniProt Q00987: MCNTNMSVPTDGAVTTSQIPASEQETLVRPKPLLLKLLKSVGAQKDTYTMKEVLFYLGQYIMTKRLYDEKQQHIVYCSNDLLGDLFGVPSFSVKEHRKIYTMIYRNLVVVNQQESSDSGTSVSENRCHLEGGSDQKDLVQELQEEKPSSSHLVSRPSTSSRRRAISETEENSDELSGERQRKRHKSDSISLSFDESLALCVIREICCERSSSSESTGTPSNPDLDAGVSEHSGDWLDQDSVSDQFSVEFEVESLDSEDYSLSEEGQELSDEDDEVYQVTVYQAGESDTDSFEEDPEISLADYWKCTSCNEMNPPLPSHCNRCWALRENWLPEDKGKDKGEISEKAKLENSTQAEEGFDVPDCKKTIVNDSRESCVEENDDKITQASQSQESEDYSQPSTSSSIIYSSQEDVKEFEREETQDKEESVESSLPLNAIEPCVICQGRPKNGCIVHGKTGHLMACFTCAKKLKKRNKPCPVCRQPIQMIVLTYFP
UniProt P23804: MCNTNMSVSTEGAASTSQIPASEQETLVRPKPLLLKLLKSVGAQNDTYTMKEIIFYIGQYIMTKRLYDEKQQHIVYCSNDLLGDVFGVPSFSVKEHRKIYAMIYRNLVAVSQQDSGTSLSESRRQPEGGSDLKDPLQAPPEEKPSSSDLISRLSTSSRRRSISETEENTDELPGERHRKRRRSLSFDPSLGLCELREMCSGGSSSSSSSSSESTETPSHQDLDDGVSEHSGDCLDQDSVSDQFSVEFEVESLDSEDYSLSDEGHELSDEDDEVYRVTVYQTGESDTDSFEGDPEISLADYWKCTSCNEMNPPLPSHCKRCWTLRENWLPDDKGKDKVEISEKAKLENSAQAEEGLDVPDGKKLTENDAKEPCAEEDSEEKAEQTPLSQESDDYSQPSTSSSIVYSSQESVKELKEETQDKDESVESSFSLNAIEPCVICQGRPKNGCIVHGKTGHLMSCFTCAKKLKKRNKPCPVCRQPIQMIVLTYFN

What was measured:
[1] = target: HDM2 on the plasma membrane of intact human cancer cells (human) (UniProt Q00987); experiment: cell-based ELISA, 5 µg/mL; A2085, MCF-7, MIAPaCa-2, HeLa, OVCA-4, OVCAR-3 cells
[2] = target: MDM2 on the plasma membrane of intact mouse cancer cells (mouse) (UniProt P23804); experiment: cell-based ELISA, LL/2, 5 µg/mL
[3] = target: MDM2 on the plasma membrane of intact mouse cancer cells (mouse) (UniProt P23804); experiment: cell-based ELISA, 5 µg/mL; MC-38 and Panc-2 cells
[4] = target: MDM2 on the plasma membrane of intact mouse cancer cells (mouse) (UniProt P23804); experiment: cell-based ELISA, LL/2
[5] = target: HDM2 on the plasma membrane of intact human cancer cells (human) (UniProt Q00987); experiment: flow cytometry on live (7AAD negative) OVCAR-3 cells, 1 µg/ml
[6] = target: MDM2 on the plasma membrane of intact mouse cancer cells (mouse) (UniProt P23804); experiment: cell-based ELISA, murine cancer cells
[7] = target: HDM2 on the plasma membrane of intact human cancer cells (human) (UniProt Q00987); experiment: cell-based ELISA, human cancer cells
[8] = target: MDM2 on the plasma membrane of intact mouse cancer cells (mouse) (UniProt P23804); experiment: cell-based ELISA, rodent cancer cells
[9] = target: MDM2 on the plasma membrane of intact mouse cancer cells (mouse) (UniProt P23804); experiment: flow cytometry on cells of excised M109 tumors
[10] = target: MDM2 on the plasma membrane of intact mouse cancer cells (mouse) (UniProt P23804); experiment: flow cytometry on live (7AAD negative) LL/2 cells, 1 µg/ml
[11] = target: HDM2 on the plasma membrane of intact human cancer cells (human) (UniProt Q00987); experiment: flow cytometry on live (7AAD negative) OVCAR-3 cells
[12] = target: MDM2 on the plasma membrane of intact mouse cancer cells (mouse) (UniProt P23804); experiment: cell-based ELISA and flow cytometry on live LL/2 cells
[13] = target: MDM2 on the plasma membrane of intact mouse cancer cells (mouse) (UniProt P23804); experiment: flow cytometry on live (7AAD negative) LL/2 cells
[14] = target: MDM2 on the plasma membrane of intact mouse cancer cells (mouse) (UniProt P23804); experiment: cell-based ELISA on intact LL/2 cells

Measured: binding

B1: humanized monoclonal antibody NMC-H103 (VH4/VK3) (antibody, V domains shown)
VH: EVQLVESGGGLVQPGPSLRLSCTTSGFTFTHYYMSWVRQAPGKGLEWLGFIRNKAKGYTAEYSASVKGRFTISRDNSKSTLYLQMNSLRAEDTAVYYCARDIGDNWGQGTLVTVSS
VL: DIVMTQTPLSSPVTLGQPASISCRSSKNLLHSNGITYLYWYLQKPGQSPQLLISRVSNLASGVPDRFSGSESGTDFTLKISRVEAEDVGVYFCAQLLELPYTFGGGTKVEIK
binds: [1] | [2] | [3] | [4] | [5] | [6] | [7] | [8] | [9] | [10] | [11] | [12]

B2: chimeric monoclonal antibody NMC-C303 (antibody, human IgG1, kappa, V domains shown)
VH: QVQLQQPGAELVKPGASVKLSCKASGYTFTSYYMYWVKQRPGQGLEWIGGINPRNGGTNFNEKFKNKATLTADKSSTTAYMQLSSLTSEDSAVYYCTRSGYYAMDYWGQGTSVTVSS
VL: DIQMTQTTSSLSASLGDRVTISCRASQDISNFLNWYQQKPDGTVKLLIYYTSRLHSGVPSRFSGSGSGTDYSLTISNLEQEDIATYFCQQGNTLPRTFGGGTKLEIKR
binds: [13] | [1] | [2] | [3] | [4] | [14] | [5] | [6] | [7] | [8] | [10] | [11]
